Measurements: PubChem BioAssay AID588590 (National Center for Advancing Translational Sciences (NCATS), 2011)
The whole screen tested about 390,000 compounds, of which about 4,000 (1%) were called active. The shares of active, inactive and inconclusive entries below differ from those in the screen. Calls follow the shape of the dose curve; as a rule, active = well fitted inhibition curve with a large enough effect; inconclusive = small, poorly fitted or top-dose-only effect, or another doubt; inactive = no such curve, though single readings can be large or run the other way. Where the call is inconclusive, the potency comes from a doubtful curve fit.

The chains behind the UniProt entries cited, without tags or fusion partners. Where a name states a change or a piece, a line headed by the entry shows the natural chain unless it says otherwise.
UniProt Q9UNA4: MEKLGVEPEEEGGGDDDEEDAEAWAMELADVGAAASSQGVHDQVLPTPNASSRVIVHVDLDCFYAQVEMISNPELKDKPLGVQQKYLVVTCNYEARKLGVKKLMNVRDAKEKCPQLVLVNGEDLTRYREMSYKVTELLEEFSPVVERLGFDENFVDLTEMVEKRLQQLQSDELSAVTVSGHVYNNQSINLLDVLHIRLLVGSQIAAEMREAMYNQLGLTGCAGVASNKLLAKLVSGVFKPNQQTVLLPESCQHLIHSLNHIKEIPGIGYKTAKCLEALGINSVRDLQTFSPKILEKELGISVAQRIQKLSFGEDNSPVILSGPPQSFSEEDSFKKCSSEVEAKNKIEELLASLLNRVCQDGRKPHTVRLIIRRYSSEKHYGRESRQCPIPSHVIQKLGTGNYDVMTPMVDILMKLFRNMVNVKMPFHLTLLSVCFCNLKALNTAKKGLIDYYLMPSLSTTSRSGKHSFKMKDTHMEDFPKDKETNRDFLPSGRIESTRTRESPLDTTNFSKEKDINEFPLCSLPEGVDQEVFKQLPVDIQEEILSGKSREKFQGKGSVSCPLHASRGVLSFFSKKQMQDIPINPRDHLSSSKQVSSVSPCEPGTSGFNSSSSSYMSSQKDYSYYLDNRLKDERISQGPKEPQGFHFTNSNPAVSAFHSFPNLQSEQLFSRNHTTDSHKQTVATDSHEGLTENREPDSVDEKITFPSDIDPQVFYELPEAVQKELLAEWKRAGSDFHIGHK

Each molecule was assayed against DNA polymerase iota (Homo sapiens) (UniProt Q9UNA4) (assay: qHTS for Inhibitors of Polymerase Iota). Conditions: Pol iota fluorescent replication assay, 10 min; series mostly up to 115 µM.
Summary of the method: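 Pol iota at 10 nM preincubated 15 min with compounds at room temperature; reaction started with fluorescent substrate, 50 nM final. Fluorescence read kinetically at 0 and 10 min; buffer-only wells as negative control.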
Potency is read from the fitted curve at half-maximal effect.

Potency, inconclusive:
CCC(CC)C(=O)Nc1cccc(C(=O)N2CCCC2)c1 39.8 µM [inhibitor, single point]
N#Cc1c(NC(=O)CSc2nnc(-c3ccco3)n2-c2ccccc2)sc2c1CCC2 20 µM [inhibitor, full curve, poor fit]
CCn1c(=O)cc(SCC(=O)NCc2cccc(Cl)c2)c2ccccc21 89.1 µM [inhibitor, single point]
CCc1ccccc1NC(=S)N(CCN(C)C)C(C)c1ccccn1 (stereo not drawn) 89.1 µM [inhibitor, single point]
COC(=O)Cn1c(=NC(=O)CN2C(=O)CCC2=O)sc2cc(S(N)(=O)=O)ccc21 89.1 µM [inhibitor, single point]
CC(C)[C@H](N)c1nnc(SCC(=O)c2ccc(Cl)cc2)o1 39.8 µM [inhibitor, partial curve, poor fit]
C/C(N)=C(/C#N)C(=O)CSc1nnnn1-c1ccccc1 14.1 µM [inhibitor, full curve, poor fit]
Cc1nc(SCC(=O)NCc2ccco2)c2oc3ccccc3c2n1 3.16 µM [inhibitor, partial curve, poor fit]
O=C(/C=C/c1ccco1)NCC(=O)N/N=C/c1ccccc1[N+](=O)[O-] 56.2 µM [inhibitor, partial curve, poor fit]
CC(=O)c1cc2c(O)c(O)ccc2o1 14.1 µM [inhibitor, partial curve, poor fit]
COc1ccc(OCc2nnc3n2N=C(c2ccccc2)C(CC(=O)O)S3)cc1 (stereo not drawn) 28.2 µM [inhibitor, partial curve]
Cc1ccc(OCC(=O)NNC(=O)c2cc3ccccc3o2)cc1C 112 µM [inhibitor, partial curve, poor fit]
CN(Cc1ccccc1)C(=O)C1CCN(S(=O)(=O)c2cccc3nonc23)CC1 56.2 µM [inhibitor, partial curve, poor fit]
CCCOc1ccc(N2C(=O)CC(S/C(N)=N/N=C(\C)c3cccs3)C2=O)cc1 (stereo not drawn) 50.1 µM [inhibitor, partial curve, poor fit]

Retrieved by compound from the list above, two records:
Potency, inconclusive:
COC(=O)Cn1c(=NC(=O)CN2C(=O)CCC2=O)sc2cc(S(N)(=O)=O)ccc21 89.1 µM [inhibitor, single point]
CCc1ccccc1NC(=S)N(CCN(C)C)C(C)c1ccccn1 (stereo not drawn) 89.1 µM [inhibitor, single point]

Following part:

Potency, inactive:
COc1ccc(/C=C2\SC(=S)N(c3cccnc3)C2=O)cc1
C=C1NN(C)C(=O)N1c1ccc(OC)cc1
Cc1cccc2cc(CN(Cc3ccccc3)Cc3nnnn3Cc3ccccc3)c(=O)[nH]c12

Potency, active:
CSc1nc(N(CCO)CCO)c2sc3nc(-c4ccco4)c4c(c3c2n1)CCC4 1.78 µM
